Source: PubChem BioAssay AID1347075 (National Center for Advancing Translational Sciences (NCATS), 2019)
Out of some 400,000 compounds screened, about 5,500 (1.4%) were called active. Inconclusive means that the source gave no clear call. Such entries were picked first, then a sample of the others. Calls come from the whole dose curve; as a rule, active = well fitted cell-killing curve with a large enough effect; inconclusive = small, poorly fitted or top-dose-only effect, or effect the other way; inactive = flat fitted curve, though single readings scatter. A potency beside an inconclusive call is a rough fit, not a confirmed value.
% is set by controls: 0 for no effect and ±100 for the full control effect; potency is the fitted concentration of half-maximal effect.

Assay: qHTS assay for MDR1-selective chemotherapeutics: Primary screen using the parental adenocarcinoma cell KB-3-1; note: nearly all actives have a fitted effect of over 60% in size
Details: KB-3-1 viability, CellTiter-Glo ATP luminescence, 72 h; activity change, negative = cytotoxic: at 46.1 µM (top of the series)
Procedure, shortened: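 KB-3-1 cells, DMEM (no phenol red) + 10% FBS; compound by pin transfer, 72 h, 37 °C. Readout: CellTiter-Glo luminescence after 10 min. Data normalized, curve-fitted.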
In the case of `O=C(N/N=C/c1ccc2c(c1)OCO2)c1cccs1`, the activity change, negative = cytotoxic is reported as inconclusive: -30% [cytotoxic]. For `CCN(CC(=O)N1CCC(C(N)=O)CC1)S(=O)(=O)c1cc(Cl)ccc1Cl`, the Potency was “inactive”. In the case of `COc1cc(C2c3c(oc4ccccc4c3=O)C(=O)N2c2nc(C)c(C)s2)ccc1O` (centres undefined), the Potency is reported as inconclusive: 0.58 µM [rising, partial curve, poor fit]. For `O=C1C=C(NCc2ccc(Cl)cc2)CC(c2ccco2)C1` (centres undefined), the Potency was inconclusive: 29.1 µM [cytotoxic, single point]. For `CCCCCCNC(=O)C(C(=O)OCC)C1CCCCC1` (centres undefined), the Potency was inconclusive: 29.1 µM [cytotoxic, single point]. For `O=C(COCc1cc(-c2cccs2)on1)NCc1ccccc1Cl`, the Potency was “inactive”. In the case of `CC1CCN(c2ccccc2NC(=O)c2cc3ccccc3o2)CC1`, the Potency is reported as “inactive”. With `O=C(CN(Cc1ccccc1)S(=O)(=O)c1ccc2c(c1)OCCO2)Nc1ccc2c(c1)OCCO2` the Potency was “inactive”. In the case of `COc1cc(C(=O)OCC(=O)NC2CC2)cc(OC)c1OC`, the Potency is reported as “inactive”. In the case of `COc1ccc(C2=NS(=O)(=O)N(C)C(C(=O)Nc3ccc(F)cc3F)=C2)cc1`, the Potency is reported as “inactive”. With `Cc1c(C(=O)OC2CCCCC2)[nH]c2c1C(=O)CC(c1ccccc1Cl)C2` (centres undefined) the Potency was active: 4.11 µM. For `CN(CC(=O)Nc1ccc(S(=O)(=O)N2CCCC2)cc1)Cc1cccc(Cl)c1Cl`, the Potency was inconclusive: 20.6 µM [cytotoxic, single point]. For `Cc1cccc(-c2cc(NC=O)c3ncc(-c4cccc(C(=O)N(C)C)c4)n3c2)c1`, the Potency was “inactive”. For `CC(C)(C)NC(=S)NC(=O)C12CC3CCC(CC(C3)C1)C2`, the Potency was “inactive”. With `O=C(Nc1nonc1NC(=O)c1cccs1)c1cccs1` the Potency was inconclusive: 6.51 µM [cytotoxic, full curve]. In the case of `CC1(CCc2ccccc2)NC(=S)N(c2ccc(Cl)cc2)N1` (centres undefined), the Potency is reported as inconclusive: 16.4 µM [cytotoxic, single point]. For `Cc1c(CCCl)c(Cl)n2c(nc3ccccc32)c1C#N`, the Potency was active: 2.06 µM. In the case of `Cc1cccc(/C=N/Nc2cc(N3CCOCC3)nc(N3CCOCC3)n2)c1`, the Potency is reported as inconclusive: 20.6 µM [cytotoxic, single point]. With `Cc1ccc(C(=O)OCC(=O)Nc2ccc(C)c(S(=O)(=O)N3CCCCC3)c2)c(O)c1` the Potency was “inactive”. In the case of `COc1ccc(CNCc2ccc3c(c2)n(C)c(=O)n3C)cc1`, the Potency is reported as “inactive”. With `Cc1ccc(C(=O)c2ccccc2C(=O)OCC(=O)NCC2CCCO2)cc1` (centres undefined) the activity change, negative = cytotoxic was inconclusive: 16.5%. For `CC(C)(C)C(=O)N1CCN(c2ncnc3scc(-c4ccccc4)c23)CC1`, the Potency was inconclusive: 23.1 µM [cytotoxic, single point]. For `Cc1cc(C(=O)N/N=C/c2ccc3c(c2)OCO3)c2ccccc2n1`, the Potency was active: 2.59 µM. For `Cc1ccc2nc(-c3ccc(NC(=O)C(F)(F)F)cc3)sc2c1`, the Potency was inconclusive: 5.17 µM [cytotoxic, full curve]. In the case of `O=C(N/N=C/c1ccc(Cl)cc1)c1ccc2c(c1)OCO2`, the Potency is reported as “inactive”. With `O=C(Nc1nnc(-c2ccc3c(c2)CCCC3)o1)c1ccc(Cl)cc1Cl` the Potency was inconclusive: 16.4 µM [cytotoxic, single point]. In the case of `CCOc1ccc(NC(=O)CCS(=O)(=O)c2ccc(Br)s2)cc1`, the Potency is reported as “inactive”. With `COc1ccc(N2CC(C(=O)N/N=C/c3ccc(C)cc3)CC2=O)cc1` (centres undefined) the Potency was active: 1.84 µM. With `COc1ccc(Cn2ccnc2SCC(=O)Nc2cccc(NC(C)=O)c2)cc1` the Potency was inconclusive: 16.4 µM [cytotoxic, partial curve, poor fit]. For `Cc1ccc(CC(=O)Nc2ccncc2)cc1`, the Potency was “inactive”. With `O=C(c1cnccn1)N(Cc1cccs1)C1(C(=O)NC2CCCCC2)CCCCC1` the activity change, negative = cytotoxic was inconclusive: -38.1%. In the case of `O=C(Nc1ccc(O)c2c(=O)cc(-c3ccccc3Cl)oc12)c1ccc(F)cc1`, the Potency is reported as “inactive”. In the case of `COc1cccc(-c2cc(NC=O)c3ncc(-c4ccc(OC)c(OC)c4)n3c2)c1`, the Potency is reported as active: 13 µM. For `CCOC(=O)c1ccccc1NC(=O)N1CCCN(S(=O)(=O)c2ccc3c(ccn3CC)c2)CC1`, the Potency was inconclusive: 29.1 µM [cytotoxic, single point]. In the case of `Cc1ccc(CN2C3=NCCN3c3ccccc32)cc1`, the Potency is reported as “inactive”. In the case of `OCC1OC(n2cnc3c(NO)ncnc32)C(O)C1O` (centres undefined), the Potency is reported as inconclusive: 32.6 µM [rising, single point]. With `CC(=O)c1c(N2CCN(c3ccc(F)cc3)CC2)nc(=S)n(Cc2ccccc2)c1C` the Potency was active: 23.1 µM. In the case of `O/N=C/c1ccc(OCc2ccccc2)c(Br)c1`, the Potency is reported as inconclusive: 20.6 µM [cytotoxic, single point]. In the case of `O=C(COC(=O)CC(c1ccccc1)c1ccccc1)NCc1ccc(Cl)cc1`, the Potency is reported as “inactive”. With `COc1ccc(C[C@H]2CN3C(=NC[C@@H]3C(C)C)N2CCNC(=O)c2ccc(C)c(Br)c2)cc1` the Potency was inconclusive: 29.1 µM [cytotoxic, single point]. With `Cc1ccc([N+](=O)[O-])cc1-c1ccc(/C=C(\C#N)c2[nH]nc(N)c2C#N)o1` the Potency was inconclusive: 32.6 µM [cytotoxic, single point]. In the case of `COC(=O)c1ccc(NC(=O)c2cc(-c3ccncc3)nc3ccccc23)cc1`, the Potency is reported as active: 23.1 µM. For `CC(C)CCn1c(CN(C)Cc2ccccc2)nc2c1c(=O)n(C)c(=O)n2C`, the Potency was inconclusive: 32.6 µM [cytotoxic, single point]. For `O=C(Nc1ccc(-c2nc3ccccc3[nH]2)cc1)C1CCCO1` (centres undefined), the Potency was inconclusive: 23.1 µM [cytotoxic, single point]. For `O=C(CCCOc1ccc(Cl)cc1Cl)N1CCc2ccccc2C1`, the Potency was “inactive”. With `CCN1/C(=C/C(=O)c2ccco2)Sc2ccccc21` the Potency was “inactive”. With `CCCNC(=O)c1ccc(N2CCC3(CC2)CC(c2ccccc2)=NO3)c(NC(=O)c2ccco2)c1` the Potency was “inactive”. In the case of `Cc1ccc(Cl)cc1OCC(=O)NCCOC(=O)Nc1sc(=S)n(C)c1C`, the Potency is reported as inconclusive: 20.6 µM [cytotoxic, partial curve]. With `c1ccc(-c2oc3ncnc(NCCN4CCOCC4)c3c2-c2ccccc2)cc1` the Potency was “inactive”. For `Cc1cc(C)cc(OCC(=O)NNC(=O)c2ccccn2)c1`, the Potency was inconclusive: 14.6 µM [cytotoxic, single point]. With `CCOc1cccc(C2C=C(c3ccc4c(c3)OCO4)NC(c3ccc(Br)cc3)N2)c1O` (centres undefined) the Potency was inconclusive: 7.31 µM [cytotoxic, partial curve, poor fit]. In the case of `Cc1nnc2ccc(-c3ccc(NS(=O)(=O)c4ccccc4F)cc3)nn12`, the Potency is reported as inconclusive: 23.1 µM [cytotoxic, single point]. With `CC1(C)C(=O)Nc2ccccc2N1C(=O)CSc1nc(-c2ccccc2)cs1` the Potency was inconclusive: 23.1 µM [cytotoxic, single point]. In the case of `S=C(NCc1ccco1)Nc1ccccn1`, the Potency is reported as “inactive”. For `COc1cc(C(=O)NC2CCN(Cc3ccccc3)CC2)cc(Cl)c1OC`, the Potency was “inactive”. In the case of `Cc1ccc(NC(=O)COc2ccc(/C=C3/SC(=Nc4ccccc4)N(Cc4cccnc4)C3=O)cc2)cc1`, the Potency is reported as inconclusive: 20.6 µM [cytotoxic, single point]. For `Nc1n[nH]c(N)c1N=Nc1cccc(C(F)(F)F)c1`, the Potency was inconclusive: 25.9 µM [cytotoxic, partial curve, poor fit]. With `COc1cc(NC(=O)c2ccco2)c(OC)cc1NC(=O)CCC(=O)Nc1cc(C)ccc1C` the Potency was inconclusive: 0.184 µM [rising, partial curve, poor fit]. With `CCN(CC)C(=O)c1sc2nc(-c3ccccn3)[nH]c(=O)c2c1C` the Potency was inconclusive: 16.4 µM [cytotoxic, partial curve, poor fit]. In the case of `O=C(Cn1nnc(-c2ccccc2)n1)N/N=C/c1ccco1`, the Potency is reported as inconclusive: 29.1 µM [rising, single point]. In the case of `C[n+]1c(-c2ccccc2)sc([S-])c1-c1ccccc1`, the Potency is reported as inconclusive: 25.9 µM [cytotoxic, single point]. With `COc1ccccc1/C=C/C=C1\Oc2c(ccc(O)c2CN2CCN(CCO)CC2)C1=O` the Potency was inconclusive: 23.1 µM [cytotoxic, single point]. With `Nc1c(C2CCCCC2)c(=O)on1C(=O)c1ccccc1` the Potency was inconclusive: 18.4 µM [rising, partial curve, poor fit]. For `CCN(CC)CCN1C(=O)Cn2c(C)c(C)c3cccc1c32`, the Potency was inconclusive: 0.206 µM [cytotoxic, partial curve, poor fit]. With `O=C(Nc1ccccc1-c1nc2ccccc2[nH]1)c1ccc(N2C(=O)CCC2=O)cc1` the Potency was “inactive”. For `O=C(NC(NC(=S)Nc1ccccc1C(=O)O)C(Cl)(Cl)Cl)c1cccc([N+](=O)[O-])c1` (centres undefined), the Potency was “inactive”. In the case of `O=C(Nc1cccc(C(=O)Nc2cccc(Br)c2)c1)c1ccccc1`, the Potency is reported as inconclusive: 32.6 µM [cytotoxic, single point]. With `COc1ccccc1NC(=O)CSc1nnc(-c2nonc2NC(C)=O)n1-c1ccccc1` the Potency was “inactive”. In the case of `COCc1nnc(NC(=O)c2ccc(S(=O)(=O)N(CC(C)C)CC(C)C)cc2)o1`, the Potency is reported as inconclusive: 16.4 µM [cytotoxic, single point]. With `COc1ccccc1CNCCS(=O)(=O)NCc1ccccc1OC` the Potency was “inactive”. With `CNC(=S)N/N=C(\C)c1ccc(N2CCOCC2)cc1` the Potency was inconclusive: 29.1 µM [cytotoxic, single point]. In the case of `COc1ccc(C(C(=O)NC2CCCC2)N(C(=O)c2snc(-c3ccc(F)cc3)c2N)c2ccc(F)cc2)cc1` (centres undefined), the Potency is reported as inconclusive: 8.2 µM [cytotoxic, partial curve]. In the case of `Cc1nc2ncccn2c1-c1csc(Nc2ccc(O)cc2)n1`, the Potency is reported as active: 14.6 µM. For `NS(=O)(=O)CCCc1ccccc1`, the Potency was inconclusive: 25.9 µM [cytotoxic, partial curve, poor fit].
